Among the data in paper doi:10.1101/322701 (bioRxiv, 2018) are binding values, retold here.

These are yes or no findings as the source states them, for the method shown. Binding can be weak; no strength is given. For some assays here: In cells and extracts the contact can be indirect. For some assays here: Tags and fused reporters may be left off the sequences shown.

The target in experiment [1] is T1, Biotinylated NH-GrgA (Chlamydia trachomatis) (UniProt O84512).
T1 sequence (chain, biotin (EZ-Link Sulfo-NHS-LC-Biotin; sites not stated)): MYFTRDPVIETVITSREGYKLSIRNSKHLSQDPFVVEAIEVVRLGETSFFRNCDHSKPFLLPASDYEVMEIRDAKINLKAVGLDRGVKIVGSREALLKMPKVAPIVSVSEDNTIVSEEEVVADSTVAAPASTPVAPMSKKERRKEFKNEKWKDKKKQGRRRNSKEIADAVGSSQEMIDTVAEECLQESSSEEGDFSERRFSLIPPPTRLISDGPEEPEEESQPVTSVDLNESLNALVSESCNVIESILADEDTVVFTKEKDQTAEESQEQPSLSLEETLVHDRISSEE
Description: BLI.

The target in experiment [2] is T2, N-terminally strep-tagged GrgA (Chlamydia trachomatis) (UniProt O84512).
T2 sequence: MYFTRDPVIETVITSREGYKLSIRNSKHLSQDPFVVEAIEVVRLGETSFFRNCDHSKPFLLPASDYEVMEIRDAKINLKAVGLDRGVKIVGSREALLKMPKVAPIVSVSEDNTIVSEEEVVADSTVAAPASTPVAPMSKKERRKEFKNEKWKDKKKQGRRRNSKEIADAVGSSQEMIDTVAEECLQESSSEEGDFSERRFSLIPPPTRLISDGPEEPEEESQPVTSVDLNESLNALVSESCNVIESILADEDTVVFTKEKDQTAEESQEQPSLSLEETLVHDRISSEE
Put plainly: pull-down.

The target in experiment [3] is T3, NH-GrgAΔ114-137 (Chlamydia trachomatis) (UniProt O84512).
T3 sequence: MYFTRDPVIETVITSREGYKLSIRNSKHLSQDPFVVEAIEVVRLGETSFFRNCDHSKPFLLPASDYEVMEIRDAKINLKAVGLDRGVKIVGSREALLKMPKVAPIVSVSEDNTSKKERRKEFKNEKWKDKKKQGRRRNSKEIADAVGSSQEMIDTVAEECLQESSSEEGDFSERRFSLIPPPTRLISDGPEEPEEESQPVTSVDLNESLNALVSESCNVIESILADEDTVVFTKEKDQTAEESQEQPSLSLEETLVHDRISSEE
Description: BLI.

In experiment [4] the target is N-terminally strep-tagged σ^28 (C. trachomatis). Description: pull-down.

Consider “N-terminally poly-His-tagged C. trachomatis σ^28”, for which the binding result in experiment [1] and in experiment [2] was “binds” in each case.

As to “N-terminally strep-tagged σ^28 (C. trachomatis)”, the binding result in experiment [3] is “binds”.

Regarding “NH-σ^28ΔNL (C. trachomatis) (domain or fragment)”, in experiment [2], the binding result was “no binding (tested: 5 μg)”.

On to NH-σ^28ΔR2 (C. trachomatis), for which the binding entry in experiment [2] is on record as “no binding (tested: 5 μg)”.

As to NH-σ^28ΔR3 (C. trachomatis), the binding entry in experiment [2] is “binds weakly”.

Consider NH-σ^28ΔR4 (C. trachomatis), for which the binding entry in experiment [2] is recorded as “binds weakly”.

B1: NH-GrgAΔ114-165 (protein, UniProt O84512)
chain: MYFTRDPVIETVITSREGYKLSIRNSKHLSQDPFVVEAIEVVRLGETSFFRNCDHSKPFLLPASDYEVMEIRDAKINLKAVGLDRGVKIVGSREALLKMPKVAPIVSVSEDNTIADAVGSSQEMIDTVAEECLQESSSEEGDFSERRFSLIPPPTRLISDGPEEPEEESQPVTSVDLNESLNALVSESCNVIESILADEDTVVFTKEKDQTAEESQEQPSLSLEETLVHDRISSEE
B1: in experiment [4], the binding result was “no binding (tested: 5 μg)”.

B2: NH-GrgAΔ1-64 (domain or fragment, UniProt O84512 65-288)
chain: DYEVMEIRDAKINLKAVGLDRGVKIVGSREALLKMPKVAPIVSVSEDNTIVSEEEVVADSTVAAPASTPVAPMSKKERRKEFKNEKWKDKKKQGRRRNSKEIADAVGSSQEMIDTVAEECLQESSSEEGDFSERRFSLIPPPTRLISDGPEEPEEESQPVTSVDLNESLNALVSESCNVIESILADEDTVVFTKEKDQTAEESQEQPSLSLEETLVHDRISSEE
As to B2, the binding result in experiment [4] was “binds”.

B3: NH-GrgAΔ114-137 (protein, UniProt O84512)
chain: MYFTRDPVIETVITSREGYKLSIRNSKHLSQDPFVVEAIEVVRLGETSFFRNCDHSKPFLLPASDYEVMEIRDAKINLKAVGLDRGVKIVGSREALLKMPKVAPIVSVSEDNTSKKERRKEFKNEKWKDKKKQGRRRNSKEIADAVGSSQEMIDTVAEECLQESSSEEGDFSERRFSLIPPPTRLISDGPEEPEEESQPVTSVDLNESLNALVSESCNVIESILADEDTVVFTKEKDQTAEESQEQPSLSLEETLVHDRISSEE
For B3, the binding result in experiment [4] is given as “binds”.

B4: N-terminally His-tagged GrgA, full length (protein, UniProt O84512 1-288)
chain: MYFTRDPVIETVITSREGYKLSIRNSKHLSQDPFVVEAIEVVRLGETSFFRNCDHSKPFLLPASDYEVMEIRDAKINLKAVGLDRGVKIVGSREALLKMPKVAPIVSVSEDNTIVSEEEVVADSTVAAPASTPVAPMSKKERRKEFKNEKWKDKKKQGRRRNSKEIADAVGSSQEMIDTVAEECLQESSSEEGDFSERRFSLIPPPTRLISDGPEEPEEESQPVTSVDLNESLNALVSESCNVIESILADEDTVVFTKEKDQTAEESQEQPSLSLEETLVHDRISSEE
B4: the binding result in experiment [4] is reported as “binds”.
